Measured values published in publication PMC10746543, “Design principles for cyclin K molecular glue degraders” (Nature Chemical Biology, 2023).
No constants are given. Whether binding was seen depends on the method and setting. Some entries that bind do so weakly or less than the wild type.

By UniProt entry, the sequences of proteins in these tests, tags left out. Where a name states a change or a piece, a line headed by the entry shows the natural chain unless it says otherwise. Chains listed by the source or under a name are the forms on record and can include a tag or linker.
CDK12 (a.a. 713–1,052) (Q9NYV4, form named): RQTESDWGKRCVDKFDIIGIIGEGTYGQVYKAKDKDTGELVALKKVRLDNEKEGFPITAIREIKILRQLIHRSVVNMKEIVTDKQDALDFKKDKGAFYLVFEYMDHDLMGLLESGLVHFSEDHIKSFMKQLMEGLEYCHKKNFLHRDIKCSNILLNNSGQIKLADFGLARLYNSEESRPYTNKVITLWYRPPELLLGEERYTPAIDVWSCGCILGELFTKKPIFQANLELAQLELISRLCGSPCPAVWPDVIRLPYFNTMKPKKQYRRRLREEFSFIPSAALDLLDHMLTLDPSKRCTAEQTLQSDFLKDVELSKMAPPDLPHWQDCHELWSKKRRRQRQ

Target: CDK12 (a.a. 713–1,052) (human) (UniProt Q9NYV4)
Test: crystal structure; DDB1ΔB (70 µM), CDK12–cyclin K (80 µM) and compound (80–120 µM) in 50 mM HEPES 7.4, 200 mM NaCl, 0.25 mM TCEP; sitting drop, 20 °C; molecular replacement with PDB 6TD3; both purified

B1: cyclin K (a.a. 1–267) (domain or fragment, UniProt O75909 1-267)
chain: MKENKENSSPSVTSANLDHTKPCWYWDKKDLAHTPSQLEGLDPATEARYRREGARFIFDVGTRLGLHYDTLATGIIYFHRFYMFHSFKQFPRYVTGACCLFLAGKVEETPKKCKDIIKTARSLLNDVQFGQFGDDPKEEVMVLERILLQTIKFDLQVEHPYQFLLKYAKQLKGDKNKIQKLVQMAWTFVNDSLCTTLSLQWEPEIIAVAVMYLAGRLCKFEIQEWTSKPMYRRWWEQFVQDVPVDVLEDICHQILDLYSQGKQQMPH
With B1 the binding was “binds”.
